These are yes or no findings as the source states them, for the method shown. Binding seen in cells or lysates may run through a third protein. Some entries that bind do so weakly or less than the wild type.
How the values were obtained:
[1] = target: endogenous HDM2 (human (endogenous in HCT116)) (UniProt Q00987); test: proximity ligation; PLA of endogenous proteins in a panel of CRC cells harboring wild-type p53
[2] = target: endogenous HDM2 (human (endogenous in HCT116)) (UniProt Q00987); test: co-IP; endogenous proteins from HCT116 p53+/+ cell lysate; IP with anti-p53 (DO-1) or anti-HDM2 (D1V2Z); normal IgG as negative control
[3] = target: mCherryC160-HDM2 (BiFC fusion) (UniProt Q00987); test: split reporter; BiFC with mCherryN159 and mCherryC160 fusions co-transfected into HCT116 cells

By UniProt entry, the sequences of proteins in these tests, tags left out.
UniProt Q00987: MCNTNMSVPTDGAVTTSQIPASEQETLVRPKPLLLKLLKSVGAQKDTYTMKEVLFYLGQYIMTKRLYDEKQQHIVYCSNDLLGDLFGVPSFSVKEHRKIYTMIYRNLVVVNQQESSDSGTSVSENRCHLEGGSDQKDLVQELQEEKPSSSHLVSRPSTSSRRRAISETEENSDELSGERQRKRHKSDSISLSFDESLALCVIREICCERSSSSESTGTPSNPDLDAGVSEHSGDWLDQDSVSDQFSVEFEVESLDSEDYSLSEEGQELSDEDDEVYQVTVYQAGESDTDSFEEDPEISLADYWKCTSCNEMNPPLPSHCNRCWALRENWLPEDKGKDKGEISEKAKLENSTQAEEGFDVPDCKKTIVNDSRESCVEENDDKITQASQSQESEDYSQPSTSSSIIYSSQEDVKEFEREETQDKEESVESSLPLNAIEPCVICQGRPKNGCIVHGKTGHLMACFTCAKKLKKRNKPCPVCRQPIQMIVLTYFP
UniProt Q14690: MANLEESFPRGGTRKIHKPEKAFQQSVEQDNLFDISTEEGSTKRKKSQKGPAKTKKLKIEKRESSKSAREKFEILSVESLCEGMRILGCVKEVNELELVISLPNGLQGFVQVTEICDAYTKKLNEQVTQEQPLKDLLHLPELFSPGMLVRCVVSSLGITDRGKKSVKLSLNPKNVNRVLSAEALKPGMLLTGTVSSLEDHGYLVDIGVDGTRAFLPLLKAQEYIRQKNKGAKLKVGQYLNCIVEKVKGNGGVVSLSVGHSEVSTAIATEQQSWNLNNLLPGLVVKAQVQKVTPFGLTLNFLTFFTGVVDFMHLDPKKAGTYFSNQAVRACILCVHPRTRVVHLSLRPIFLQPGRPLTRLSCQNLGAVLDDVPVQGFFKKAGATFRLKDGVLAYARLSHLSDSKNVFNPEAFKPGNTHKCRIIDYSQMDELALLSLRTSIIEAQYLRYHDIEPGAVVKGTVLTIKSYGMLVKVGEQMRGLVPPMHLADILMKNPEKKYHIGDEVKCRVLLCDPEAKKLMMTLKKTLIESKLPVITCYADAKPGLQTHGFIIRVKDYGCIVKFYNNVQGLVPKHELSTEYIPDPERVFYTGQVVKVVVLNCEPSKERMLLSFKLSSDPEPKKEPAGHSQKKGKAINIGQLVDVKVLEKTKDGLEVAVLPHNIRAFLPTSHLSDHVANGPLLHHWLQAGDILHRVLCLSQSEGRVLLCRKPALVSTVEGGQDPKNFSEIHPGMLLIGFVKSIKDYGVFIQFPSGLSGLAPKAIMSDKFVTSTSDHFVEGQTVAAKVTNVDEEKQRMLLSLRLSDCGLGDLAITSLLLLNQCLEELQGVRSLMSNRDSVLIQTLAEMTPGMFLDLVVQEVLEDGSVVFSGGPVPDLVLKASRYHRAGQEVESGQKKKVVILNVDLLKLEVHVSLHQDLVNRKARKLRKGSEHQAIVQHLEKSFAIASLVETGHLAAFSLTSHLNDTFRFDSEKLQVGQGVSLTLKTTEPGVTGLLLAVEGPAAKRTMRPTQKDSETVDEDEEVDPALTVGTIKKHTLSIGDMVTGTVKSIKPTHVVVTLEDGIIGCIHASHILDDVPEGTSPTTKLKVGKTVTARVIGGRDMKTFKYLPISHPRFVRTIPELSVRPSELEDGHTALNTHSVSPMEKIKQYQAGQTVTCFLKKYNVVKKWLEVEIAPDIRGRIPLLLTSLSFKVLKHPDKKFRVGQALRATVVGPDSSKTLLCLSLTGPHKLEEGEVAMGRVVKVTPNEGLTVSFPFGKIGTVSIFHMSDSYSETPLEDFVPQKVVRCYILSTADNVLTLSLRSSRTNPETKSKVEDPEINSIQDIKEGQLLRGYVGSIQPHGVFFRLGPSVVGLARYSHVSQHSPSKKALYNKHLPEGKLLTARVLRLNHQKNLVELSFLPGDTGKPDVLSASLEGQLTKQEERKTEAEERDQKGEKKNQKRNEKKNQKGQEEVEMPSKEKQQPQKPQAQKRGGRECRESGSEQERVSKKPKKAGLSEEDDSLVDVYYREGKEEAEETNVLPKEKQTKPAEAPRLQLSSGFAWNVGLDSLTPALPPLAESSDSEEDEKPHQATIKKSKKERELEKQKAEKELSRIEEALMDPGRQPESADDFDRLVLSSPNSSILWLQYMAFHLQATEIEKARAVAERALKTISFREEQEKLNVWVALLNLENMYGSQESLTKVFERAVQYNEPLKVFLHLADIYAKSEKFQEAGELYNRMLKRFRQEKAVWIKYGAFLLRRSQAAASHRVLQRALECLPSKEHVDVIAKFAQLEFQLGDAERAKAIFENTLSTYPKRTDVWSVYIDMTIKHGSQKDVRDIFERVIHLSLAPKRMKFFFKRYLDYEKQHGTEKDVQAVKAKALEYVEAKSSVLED

| Substance | binding [1] | binding [2] | binding [3] |
| --- | --- | --- | --- |
| endogenous PDCD11 (from UniProt Q14690 1-1871) | binds | binds | – |
| mCherryN159-PDCD11 (BiFC fusion) (from UniProt Q14690 1-1871) | – | – | binds |

Reference: article PMC10703783
